Laboratory results: PMC4159567
These are yes or no findings as the source states them, for the method shown. Some binding calls cover weakened binding; strength is not graded here. Where a sequence is shown, tags or fusion partners need not be part of it. Each block holds one binder with its values, some of them ahead of it.

Assays:
GFP-(GA)50 (human) = experiment: Western blot of high molecular weight species; Triton X-100 soluble and insoluble fractions of transfected HEK293T cells (48 h); samples heated in Laemmli's buffer
[1] = biological target: GFP-(GA)50 (AAV1, primary neurons) (human); experiment: Western blot of high molecular weight species; lysates (Co-IP buffer with 2 % SDS) of primary mouse cortical neurons, seven days after AAV1 transduction
ATG-(GA)50-HA (human) = experiment: Western blot of high molecular weight species; total lysates (Co-IP buffer plus 2 % SDS) of transfected HEK293T cells (48 h); samples heated in Laemmli's buffer
ATG-(GA)50-V5 (human) = experiment: as above
ATG-(GA)100-V5 (human) = experiment: as above

B2: GFP-(GA)50 (AAV1, primary neurons) (protein)
chain: GAGAGAGAGAGAGAGAGAGAGAGAGAGAGAGAGAGAGAGAGAGAGAGAGAGAGAGAGAGAGAGAGAGAGAGAGAGAGAGAGAGAGAGAGAGAGAGAGAGA
binding [1]: binds

B4: ATG-(GA)50-V5 (protein)
chain: MGAGAGAGAGAGAGAGAGAGAGAGAGAGAGAGAGAGAGAGAGAGAGAGAGAGAGAGAGAGAGAGAGAGAGAGAGAGAGAGAGAGAGAGAGAGAGAGAGAGA
binding (ATG-(GA)50-V5 (human)): binds

Now from value to binder:

binding (GFP-(GA)50 (human)): binds
B1: GFP-(GA)50 (protein)
chain: GAGAGAGAGAGAGAGAGAGAGAGAGAGAGAGAGAGAGAGAGAGAGAGAGAGAGAGAGAGAGAGAGAGAGAGAGAGAGAGAGAGAGAGAGAGAGAGAGAGA

binding (ATG-(GA)50-HA (human)): binds
B3: ATG-(GA)50-HA (protein)
chain: MGAGAGAGAGAGAGAGAGAGAGAGAGAGAGAGAGAGAGAGAGAGAGAGAGAGAGAGAGAGAGAGAGAGAGAGAGAGAGAGAGAGAGAGAGAGAGAGAGAGA

binding (ATG-(GA)100-V5 (human)): binds
B5: ATG-(GA)100-V5 (protein)
chain: MGAGAGAGAGAGAGAGAGAGAGAGAGAGAGAGAGAGAGAGAGAGAGAGAGAGAGAGAGAGAGAGAGAGAGAGAGAGAGAGAGAGAGAGAGAGAGAGAGAGAGAGAGAGAGAGAGAGAGAGAGAGAGAGAGAGAGAGAGAGAGAGAGAGAGAGAGAGAGAGAGAGAGAGAGAGAGAGAGAGAGAGAGAGAGAGAGAGAGAGA
